Source: patent US6387881B1, “Inhibitors and substrates of thrombin” (priority 1992, dated 2002)
At least one compound was matched to its structure with a doubt left.

Tested on: 111indium-labelled platelets
Test: Deposition of 111indium-labelled platelets after intravenous dose
Format: in vivo, New Zealand white rabbits
Details: 1 mg/kg i.v. dose
Text: M. Hero, K. D. Butler, C. […] Peripheral blood pressure was monitored by a pressure sensor in the carotid artery.

`CC1(C)C2CC3OB(C(CCCSC(=N)N)NC(=O)C4CCCN4C(=O)C(Cc4ccccc4)NC(=O)OCc4ccccc4)OC3(C)C1C2` [Compound 25, Z-D-Phe-Pro-BoroIrg-OPin] was tested, and the “PLATELET ACCUMULATION (% OF NORMAL) LEG” value was 44-40% and the “PLATELET ACCUMULATION (% OF NORMAL) LUNG” value was 44-40%, PROLONGED.
